PubChem BioAssay AID1259308, NCATS – 2017
The deposit covers about 59,000 reagents; this is a random part of them. About 1,510 of all reagents (2.6%) count as active. 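Calls use total luciferase alone and ignore viability, so some active siRNAs may act by altering cell number.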 Reagents against one gene are numbered here.

Purpose: 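Candidate targets for better recombinant protein yield in mammalian cells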 (primary screen)
Cell system: human HEK293 embryonic kidney cells stably expressing firefly luciferase (HEK-CMV-Luc2-Hygro)
Reagents: single siRNA against human genes, 0.8 pmol siRNA per well
Duration: 72 h
Measurement: 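Reporter luminescence and viable-cell signal on separate replicate plates, given as percent of non-targeting control and median/MAD z-scores, plus per-cell luciferase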
Scale: total luciferase, z-score and total luciferase, % of control: higher = more reporter protein produced; luciferase per cell, z-score: higher = more reporter output per viable cell; viable cells, % of control: higher = more viable cells
Active means: 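An siRNA counts as active if its total luciferase robust z-score exceeds 3; genes with two or more such siRNAs out of three were retested with fresh siRNAs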
Meaning of the calls: active = raised luciferase; inactive = no rise

gene | reagent | total luciferase, z-score | total luciferase, % of control | luciferase per cell, z-score | viable cells, % of control | outcome
PRELID3B | 1 | -0.147 | 79 | 0.126 | 85.3 | inactive
PRELID3B | 2 | -2.11 | 40 | -1.12 | 60.1 | inactive
PRELID3B | 3 | -1.07 | 60.5 | 0.0482 | 66.8 | inactive
WDR82 | 1 | 2.39 | 129 | 2.11 | 82.9 | inactive
WDR82 | 2 | -0.39 | 74.1 | -0.677 | 99 | inactive
WDR82 | 3 | 0.0126 | 82.1 | -0.237 | 97.7 | inactive
MPP1 | 1 | 0.42 | 90.2 | 0.215 | 95.3 | inactive
MPP1 | 2 | 0.568 | 93.2 | 0.825 | 83.8 | inactive
MPP1 | 3 | -0.2 | 77.9 | -0.287 | 93.9 | inactive
SAMD15 | 1 | -0.0636 | 80.6 | -0.0256 | 90.7 | inactive
SAMD15 | 2 | 2.66 | 135 | 2.61 | 75.8 | inactive
SAMD15 | 3 | 0.226 | 86.4 | 1.7 | 61.7 | inactive
SPATA7 | 1 | 0.906 | 99.9 | 0.728 | 92.2 | inactive
SPATA7 | 2 | -0.173 | 78.4 | 0.182 | 83.5 | inactive
SPATA7 | 3 | 1.27 | 107 | 0.532 | 104 | inactive
KTN1 | 1 | 0.0365 | 82.6 | -0.232 | 98.1 | inactive
KTN1 | 2 | 0.0955 | 83.8 | -0.809 | 116 | inactive
KTN1 | 3 | -1.99 | 42.3 | -1.54 | 70.9 | inactive
CFAP91 | 1 | 0.147 | 84.8 | 0.615 | 80.6 | inactive
CFAP91 | 2 | -0.696 | 68 | -0.198 | 80.1 | inactive
CFAP91 | 3 | 0.787 | 97.5 | 0.24 | 102 | inactive
SYCN | 1 | 0.791 | 97.6 | -0.0158 | 110 | inactive
SYCN | 2 | 0.541 | 92.7 | 0.354 | 94.3 | inactive
SYCN | 3 | -1.13 | 59.3 | -0.551 | 76.7 | inactive
CPNE6 | 1 | -1.09 | 60.3 | -1.57 | 102 | inactive
CPNE6 | 2 | 0.323 | 88.3 | 0.125 | 95.5 | inactive
CPNE6 | 3 | 0.912 | 100 | 0.51 | 97.7 | inactive
CALCOCO2 | 1 | 0.169 | 85.2 | 1.23 | 68.8 | inactive
CALCOCO2 | 2 | 1.58 | 113 | 2.73 | 61.8 | inactive
CALCOCO2 | 3 | 1.86 | 119 | 0.646 | 112 | inactive
ADSS2 | 1 | -0.609 | 69.8 | 0.107 | 75.8 | inactive
ADSS2 | 2 | 0.697 | 95.8 | 1.18 | 78.5 | inactive
ADSS2 | 3 | -0.997 | 62 | -1.17 | 94.4 | inactive
LDHAL6A | 1 | 0.645 | 94.7 | 0.974 | 81.9 | inactive
LDHAL6A | 2 | -1.48 | 52.5 | -1.97 | 98.6 | inactive
LDHAL6A | 3 | -0.0444 | 81 | 0.416 | 81.1 | inactive
LIPM | 1 | 0.325 | 88.4 | 0.0594 | 97.2 | inactive
LIPM | 2 | 0.228 | 86.4 | -0.477 | 109 | inactive
LIPM | 3 | 1.49 | 112 | 0.514 | 109 | inactive
MCRIP2 | 1 | -0.484 | 72.3 | -0.424 | 90.3 | inactive
MCRIP2 | 2 | -0.153 | 78.8 | -0.152 | 91.7 | inactive
MCRIP2 | 3 | -0.506 | 71.8 | -1.12 | 108 | inactive
PANK2 | 1 | 0.276 | 87.4 | 1.19 | 71.4 | inactive
PANK2 | 2 | -0.46 | 72.7 | -0.732 | 98.6 | inactive
PANK2 | 3 | 1.04 | 103 | 0.538 | 99.4 | inactive
C2orf78 | 1 | 0.226 | 86.4 | 0.969 | 74.8 | inactive
C2orf78 | 2 | 2.75 | 137 | 2.52 | 78.7 | inactive
C2orf78 | 3 | 0.487 | 91.6 | 0.254 | 95.7 | inactive

An excerpt of the results above:
gene | reagent | total luciferase, z-score | total luciferase, % of control | luciferase per cell, z-score | viable cells, % of control | outcome
CFAP91 | 3 | 0.787 | 97.5 | 0.24 | 102 | inactive
SYCN | 1 | 0.791 | 97.6 | -0.0158 | 110 | inactive
SYCN | 2 | 0.541 | 92.7 | 0.354 | 94.3 | inactive
SYCN | 3 | -1.13 | 59.3 | -0.551 | 76.7 | inactive

The list goes on:
gene | reagent | total luciferase, z-score | total luciferase, % of control | luciferase per cell, z-score | viable cells, % of control | outcome
B3GNT2 | 1 | -0.92 | 63.6 | -0.97 | 91.7 | inactive
B3GNT2 | 2 | -0.0222 | 81.4 | -0.236 | 96.8 | inactive
B3GNT2 | 3 | 0.179 | 85.4 | 0.493 | 83.9 | inactive
CDH4 | 1 | -1.18 | 58.4 | -1.1 | 87.1 | inactive
CDH4 | 2 | 3.27 | 147 | 2.1 | 94.4 | active
CDH4 | 3 | 0.254 | 86.9 | -0.136 | 101 | inactive
ABCA3 | 1 | 0.216 | 86.2 | -0.231 | 102 | inactive
ABCA3 | 2 | -0.109 | 79.7 | 0.131 | 86.1 | inactive
ABCA3 | 3 | -0.308 | 75.8 | -1 | 110 | inactive
TMX2 | 1 | -0.324 | 75.4 | 0.383 | 76.2 | inactive
TMX2 | 2 | -1.88 | 44.6 | 1.23 | 36 | inactive
TMX2 | 3 | 0.16 | 85.1 | -0.0901 | 97.3 | inactive
ADTRP | 1 | 0.755 | 96.9 | 0.0492 | 107 | inactive
ADTRP | 2 | 0.537 | 92.6 | -0.151 | 108 | inactive
ADTRP | 3 | -0.466 | 72.6 | -0.958 | 104 | inactive
ZNF79 | 1 | -0.173 | 78.4 | 0.34 | 80.2 | inactive
ZNF79 | 2 | -0.641 | 69.1 | -0.94 | 99 | inactive
ZNF79 | 3 | -3.04 | 21.5 | -1.58 | 36.4 | inactive
CHCHD2P9 | 1 | 0.624 | 94.3 | 0.721 | 87.2 | inactive
CHCHD2P9 | 2 | -0.527 | 71.4 | -1.19 | 109 | inactive
CHCHD2P9 | 3 | 1.7 | 116 | 0.617 | 110 | inactive
CPAMD8P1 | 1 | 1.56 | 113 | 2.06 | 73.3 | inactive
CPAMD8P1 | 2 | -0.152 | 78.9 | 0.0616 | 86.7 | inactive
CPAMD8P1 | 3 | -0.893 | 64.1 | -0.747 | 87.2 | inactive
HDAC9 | 1 | -1.04 | 61.2 | -0.778 | 83.9 | inactive
HDAC9 | 2 | 0.036 | 82.6 | 1.15 | 68.2 | inactive
HDAC9 | 3 | 2.99 | 141 | 2.49 | 82 | inactive
